Laboratory results reported in article PMC4490394 (Scientific Reports, 2015).

System: VCaP cells
Assay: VCaP proliferation assay (WST-1)
Assay type: cell-based
Details: Homo sapiens, 96 h, read-out: IC50, androgen-induced VCaP cell proliferation
Method: VCaP cells were treated with a submaximal concentration of mibolerone (0.1 nM) and increasing concentrations of test compounds in steroid-free assay medium supplemented with 4 mM GlutaMAX. After a 4-day incubation with the compounds, cell viability was measured using a WST-1 cell proliferation assay (Roche), according to manufacturer’s instructions. […]

For `CNC(=O)c1ccc(N2C(=S)N(c3ccc(C#N)c(C(F)(F)F)c3)C(=O)C2(C)C)cc1F` [Enzalutamide, enzalutamide, reference compound], the IC50 was 410 nM.
